{"source": "the supplement of paper PMC9744312", "note": "Counter-ions that a name gives are not always drawn. This is one part of the list. The data scatter; read single values as rough.", "data": [{"test_system": "Peyronie's disease tunica albuginea primary fibroblasts", "experiment": "inhibition of TGF-beta1-induced alpha-SMA expression (myofibroblast transformation), relative to TGF-beta1-only and untreated controls; higher = stronger inhibition of myofibroblast transformation", "details": "10 µM; TGF-beta1 10 ng/mL; 72 h", "units": {"inhibition of TGF-beta1-induced alpha-SMA expression": "%"}, "values": [{"smiles": "CCCCCCCCC(=O)NCc1ccc(O)c(OC)c1", "note": "[Nonivamide]", "inhibition of TGF-beta1-induced alpha-SMA expression": -1.52}, {"smiles": "NCCCNCCSP(=O)(O)O", "note": "[Amifostine]", "inhibition of TGF-beta1-induced alpha-SMA expression": 17.6}, {"smiles": "CN(C)C(=O)Oc1ccc[n+](C)c1", "note": "[Pyridostigmine Bromide]", "inhibition of TGF-beta1-induced alpha-SMA expression": 8.69}, {"smiles": "O=c1[nH]c2ccccc2n1C1CCN(CCCC(c2ccc(F)cc2)c2ccc(F)cc2)CC1", "note": "[Pimozide]", "inhibition of TGF-beta1-induced alpha-SMA expression": 8.77}, {"smiles": "CC(C)NCC(O)c1ccccc1Cl", "note": "(centres undefined) [Clorprenaline HCl]", "inhibition of TGF-beta1-induced alpha-SMA expression": 30.4}, {"smiles": "CC[N+](C)(CC)CCOC(=O)C(O)(c1ccccc1)c1ccccc1", "note": "[Methylbenactyzine Bromide]", "inhibition of TGF-beta1-induced alpha-SMA expression": 54.8}, {"smiles": "C[C@@H]1[C@H](O)[C@@H](C)/C=C/C=C/CC/C=C/C=C/C=C/C=C/[C@H](O[C@H]2O[C@@H](C)[C@H](O)[C@@H](N)[C@H]2O)C[C@@H]2O[C@](O)(C[C@@H](O)[C@H](O)CC[C@@H](O)C[C@@H](O)C[C@@H](O)CC(=O)O[C@H]1C)C[C@H](O)[C@H]2C(=O)O", "note": "[Nystatin (Fungicidin)]", "inhibition of TGF-beta1-induced alpha-SMA expression": 6.37}, {"smiles": "N[C@@H]1C[C@H]1c1ccccc1", "note": "[Tranylcypromine (2-PCPA) HCl]", "inhibition of TGF-beta1-induced alpha-SMA expression": 21.6}, {"smiles": "[O-][n+]1ccccc1[S-].[O-][n+]1ccccc1[S-].[Zn+2]", "note": "[Zinc Pyrithione]", "inhibition of TGF-beta1-induced alpha-SMA expression": "> 100"}, {"smiles": "O=[N+]([O-])C(Br)(CO)CO", "note": "[Bronopol]", "inhibition of TGF-beta1-induced alpha-SMA expression": 15.4}, {"smiles": "CN1[C@@H]2C[C@@H](OC(=O)[C@H](CO)c3ccccc3)C[C@H]1[C@@H]1O[C@@H]12", "note": "[Scopolamine HBr]", "inhibition of TGF-beta1-induced alpha-SMA expression": 28.2}, {"smiles": "CC(NC(C)(C)C)C(=O)c1cccc(Cl)c1", "note": "(centres undefined) [Amfebutamone (Bupropion) HCl]", "inhibition of TGF-beta1-induced alpha-SMA expression": 17.8}, {"smiles": "NC[C@H](CC(=O)O)c1ccc(Cl)cc1", "note": "[(R)-baclofen]", "inhibition of TGF-beta1-induced alpha-SMA expression": -4.27}, {"smiles": "O=C1CC[C@@]2(O)[C@H]3Cc4ccc(O)c5c4[C@@]2(CCN3CC2CC2)[C@H]1O5", "note": "[Naltrexone HCl]", "inhibition of TGF-beta1-induced alpha-SMA expression": 9.45}, {"smiles": "Cn1c(CCCC(=O)O)nc2cc(N(CCCl)CCCl)ccc21", "note": "[Bendamustine HCl]", "inhibition of TGF-beta1-induced alpha-SMA expression": -6.69}, {"smiles": "CN[C@@H]1[C@@H](O)[C@@H](O[C@@H]2[C@@H](O)[C@H](O[C@H]3O[C@H](CN)CC[C@H]3N)[C@@H](N)C[C@H]2N)OC[C@]1(C)O.CN[C@@H]1[C@@H](O)[C@@H](O[C@@H]2[C@@H](O)[C@H](O[C@H]3O[C@H]([C@@H](C)N)CC[C@H]3N)[C@@H](N)C[C@H]2N)OC[C@]1(C)O.CN[C@@H]1[C@@H](O)[C@@H](O[C@@H]2[C@@H](O)[C@H](O[C@H]3O[C@H]([C@@H](C)NC)CC[C@H]3N)[C@@H](N)C[C@H]2N)OC[C@]1(C)O", "note": "[Gentamicin Sulfate]", "inhibition of TGF-beta1-induced alpha-SMA expression": -0.757}, {"smiles": "CC(=O)O[C@H]1C[C@@H]2CC[C@@H]3[C@H](CC[C@@]4(C)[C@H]3C[C@H]([N+]3(C)CCCCC3)[C@@H]4OC(C)=O)[C@@]2(C)C[C@@H]1[N+]1(C)CCCCC1", "note": "[Pancuronium dibromide]", "inhibition of TGF-beta1-induced alpha-SMA expression": 22.1}, {"smiles": "c1ccc2c(c1)Nc1ccccc1S2", "note": "[Phenothiazine]", "inhibition of TGF-beta1-induced alpha-SMA expression": 33.9}, {"smiles": "C[C@]12CCC(=O)C=C1C=C[C@@H]1[C@@H]2CC[C@@]2(C)[C@H]1CC[C@@]2(O)CCC(=O)O", "note": "[Potassium Canrenoate]", "inhibition of TGF-beta1-induced alpha-SMA expression": 6.44}, {"smiles": "Cc1cccc(C)c1NC(=O)CN1CCCC1=O", "note": "[Nefiracetam]", "inhibition of TGF-beta1-induced alpha-SMA expression": 9.42}, {"smiles": "Cc1cccc(Cc2c[nH]cn2)c1C", "note": "[Detomidine HCl]", "inhibition of TGF-beta1-induced alpha-SMA expression": 6.37}, {"smiles": "CC(C)C(Br)C(=O)NC(N)=O", "note": "(centres undefined) [Bromisoval]", "inhibition of TGF-beta1-induced alpha-SMA expression": 7}, {"smiles": "CCCC[N+]1(C)[C@@H]2C[C@@H](OC(=O)[C@H](CO)c3ccccc3)C[C@H]1[C@@H]1O[C@@H]12", "note": "(some centres undefined) [Butylscopolamine Bromide]", "inhibition of TGF-beta1-induced alpha-SMA expression": -2.74}, {"smiles": "CNC1CC(N)C(O)C(OC2OC(CO)C(O)C3OC4(OC(C(N)CO)C(O)C(O)C4O)OC23)C1O", "note": "(centres undefined) [Hygromycin B]", "inhibition of TGF-beta1-induced alpha-SMA expression": 14.9}, {"smiles": "C=CCN1CC[C@]23c4c5ccc(O)c4O[C@H]2C(=O)CC[C@@]3(O)[C@H]1C5", "note": "[Naloxone HCl]", "inhibition of TGF-beta1-induced alpha-SMA expression": 17.7}, {"smiles": "Cn1cc(C2=C(c3cn(C4CCN(Cc5ccccn5)CC4)c4ccccc34)C(=O)NC2=O)c2ccccc21", "inhibition of TGF-beta1-induced alpha-SMA expression": 2.53}, {"smiles": "NC(=O)c1cc(N2CC2)c([N+](=O)[O-])cc1[N+](=O)[O-]", "inhibition of TGF-beta1-induced alpha-SMA expression": 31.9}, {"smiles": "CC(C)OC(=O)[C@H](C)N[P@](=O)(CO[C@H](C)Cn1cnc2c(N)ncnc21)Oc1ccccc1", "note": "[Tenofovir Alafenamide (GS-7340)]", "inhibition of TGF-beta1-induced alpha-SMA expression": 11.4}, {"smiles": "CC(=O)O[C@H]1CC[C@@]2(C)C(=CC[C@@H]3[C@@H]2CC[C@]2(C)C(=O)CC[C@@H]32)C1", "note": "[Dehydroepiandrosterone acetate]", "inhibition of TGF-beta1-induced alpha-SMA expression": -2.27}, {"smiles": "CC(C)c1cccc(C(C)C)c1O", "note": "[Propofol]", "inhibition of TGF-beta1-induced alpha-SMA expression": 14.9}, {"smiles": "COc1cc2c(c(OC)c1OC)-c1ccc(OC)c(=O)cc1[C@@H](NC(C)=O)CC2", "note": "[Colchicine]", "inhibition of TGF-beta1-induced alpha-SMA expression": 77.8}, {"smiles": "O=C(O)c1nn(Cc2ccc(Cl)cc2Cl)c2ccccc12", "note": "[Lonidamine]", "inhibition of TGF-beta1-induced alpha-SMA expression": -4.56}, {"smiles": "Cc1cc(C(C#N)c2ccc(Cl)cc2)c(Cl)cc1NC(=O)c1cc(I)cc(I)c1O", "note": "(centres undefined) [Closantel]", "inhibition of TGF-beta1-induced alpha-SMA expression": 7.44}, {"smiles": "Cc1cc(C(C#N)c2ccc(Cl)cc2)c(Cl)cc1NC(=O)c1cc(I)cc(I)c1O", "note": "(centres undefined) [Closantel Sodium]", "inhibition of TGF-beta1-induced alpha-SMA expression": 4.17}, {"smiles": "CCOC(=O)Nc1ccc(NCc2ccc(F)cc2)cc1N", "note": "[Retigabine]", "inhibition of TGF-beta1-induced alpha-SMA expression": 57.2}, {"smiles": "CCOC(=O)Nc1ccc(NCc2ccc(F)cc2)cc1N", "note": "[Retigabine 2HCl]", "inhibition of TGF-beta1-induced alpha-SMA expression": 65.3}, {"smiles": "CC(O)(CS(=O)(=O)c1ccc(F)cc1)C(=O)Nc1ccc(C#N)c(C(F)(F)F)c1", "note": "(centres undefined) [Bicalutamide]", "inhibition of TGF-beta1-induced alpha-SMA expression": -11.9}, {"smiles": "CCOC(=O)c1cncn1[C@H](C)c1ccccc1", "note": "[Etomidate]", "inhibition of TGF-beta1-induced alpha-SMA expression": -19.4}, {"smiles": "O=c1cccc2n1C[C@@H]1CNC[C@H]2C1", "note": "[Cytisine]", "inhibition of TGF-beta1-induced alpha-SMA expression": 8.05}, {"smiles": "NCC1(CC(=O)O)CCCCC1", "note": "[Gabapentin]", "inhibition of TGF-beta1-induced alpha-SMA expression": -0.309}, {"smiles": "NCC1(CC(=O)O)CCCCC1", "note": "[Gabapentin HCl]", "inhibition of TGF-beta1-induced alpha-SMA expression": -1.22}, {"smiles": "Cc1ccc2c(c1)[C@]13CCCC[C@@H]1[C@H](C2)N(C)CC3", "note": "[Dimemorfan phosphate]", "inhibition of TGF-beta1-induced alpha-SMA expression": 42.7}, {"smiles": "O=[N+]([O-])O[C@H]1CO[C@H]2[C@@H]1OC[C@H]2O[N+](=O)[O-]", "note": "[Isosorbide dinitrate]", "inhibition of TGF-beta1-induced alpha-SMA expression": 0.216}, {"smiles": "C=C1CC[C@@]2(O)[C@H]3Cc4ccc(O)c5c4[C@@]2(CCN3CC2CC2)[C@H]1O5", "note": "[Nalmefene HCl]", "inhibition of TGF-beta1-induced alpha-SMA expression": 15.5}]}]}
